Results taken from PubChem BioAssay AID2685 (National Center for Advancing Translational Sciences (NCATS), 2010).
The list shows a part of the results. Shown are side measurements of this screen, not its main read-out; they come without a call. Compounds called inactive in the main read-out are mostly missing here. Potencies come from curve fits of mixed quality, noted in brackets.

Experiment: qHTS Assay for Lipid Storage Modulators in Drosophila S3 Cells;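 as to cell number change: cells counted by Cell Tracker Red CMTPX staining in the red channel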
Details: BODIPY lipid droplet fluorescence, 18-24 h; for cell number change: measured here: cell count max response, cells fed with added oleic acid
Method in brief: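 Laser-scanning cytometry quantifies lipid droplet accumulation (500–530 nm total intensity; droplet/cell object ratio) in oleic acid-fed (400 uM added) Drosophila S3 cells treated with a concentration series. 20 uM Triacsin C defined 100% inhibition.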

[1] = measured here: cell number channel AC50, cells fed with added oleic acid
[2] = measured here: lipid fluorescence (Fed channel) AC50, cells fed with added oleic acid

| SMILES | cell number change [%] | AC50 [1] | AC50 [2] |
| --- | --- | --- | --- |
| CC(/C=C1\SC(=S)N(NC(=O)c2cccc(O)c2)C1=O)=C\c1ccccc1 | 50.1 | 6.51 µM [rising, single point] | 32.6 µM [rising, single point] |
| COC(=O)c1ccc(/C=C2/SC(=S)N(CCCC(=O)Nc3ccccn3)C2=O)cc1 | -1.72 |  | 1.16 µM [rising, partial curve] |
| Cc1ccc(-c2noc(Cn3nc(C(=O)O)c4ccccc4c3=O)n2)cc1 | 1.32 |  | 1.26 µM [falling, full curve, poor fit] |
| Cc1ccccc1NC(=S)NNC(=O)c1cccc(Br)c1 | 44.7 | 23.1 µM [rising, single point] |  |
| FC(F)(F)c1cc(Cl)c2nnc(C(F)(F)Cl)n2c1 | -28.9 | 0.184 µM [falling, full curve] | 0.146 µM [falling, full curve, poor fit] |
| CCC(=O)N(CC)c1nc(-c2ccc(OC)cc2)cs1 | -18.5 |  | 32.6 µM [falling, partial curve, poor fit] |
| O=C(CS(=O)Cc1ccccc1Cl)Nc1ccccc1Cl (stereo not given) |  |  | 4.61 µM [falling, single point] |
| COc1ccc(CCNC(=O)COc2cc(O)c3c(c2)OC(C)(C)CC3=O)cc1 | -2.27 |  | 16.4 µM [falling, single point] |
| Cc1ccc(NC(=O)Cn2nnc(C(=O)Nc3ccc(F)c(Cl)c3)c2N)cc1 | 53.4 | 13 µM [rising, partial curve, poor fit] |  |
| Cc1cc(C)c(NC(=O)CN(C)C(=O)CNC(=O)c2cccs2)c(C)c1 | -8.56 |  | 16.4 µM [falling, partial curve] |
| C=CCNS(=O)(=O)c1cc(S(=O)(=O)NCC=C)c(OC)cc1OC | -50.2 | 0.164 µM [falling, full curve, poor fit] | 0.13 µM [falling, full curve] |
| O=Cc1ccc(Sc2nnc(-c3ccccc3)o2)c([N+](=O)[O-])c1 | -1.9 |  | 6.51 µM [falling, single point] |
| CC(=O)c1cc(C)ccc1OC(=O)c1cccnc1 | -2.41 |  | 1.84 µM [rising, partial curve] |
| COC(=O)C1=C(CS(=O)(=O)c2cc(OC)ccc2OC)NC(=O)NC1c1ccc(O)c(OC)c1 (stereo not given) | 15.8 |  |  |
| CC1CCN(C(=O)CSc2nnc(-c3ccccc3F)o2)CC1 | 6.41 |  |  |
| O=C(CNC1CCCCCC1)Nc1ccccc1N1CCCCC1 | -25 |  | 23.1 µM [falling, partial curve, poor fit] |
| CCN(CC)S(=O)(=O)c1cccc(C(=O)c2c(C)cc3ccccn23)c1 | 35.4 | 11.6 µM [rising, partial curve, poor fit] | 18.4 µM [rising, partial curve] |
| Cc1cccc(OCCn2cc(/C=N/NC(=O)c3ccncc3)c3ccccc32)c1 | -9.21 |  |  |
| CN(C)CCSc1nc(-c2ccccc2)nc2c1COC(C)(C)C2 | -10.3 |  | 2.59 µM [falling, single point] |
| Cc1c(NC(=O)c2noc(C(C)C)c2[N+](=O)[O-])c(=O)n(-c2ccccc2)n1C | -5.7 |  | 0.00651 µM [falling, full curve, poor fit] |

An excerpt from above in order of length of the SMILES, rising.

| SMILES | cell number change [%] | AC50 [1] | AC50 [2] |
| --- | --- | --- | --- |
| O=C(CS(=O)Cc1ccccc1Cl)Nc1ccccc1Cl (stereo not given) |  |  | 4.61 µM [falling, single point] |
| Cc1cc(C)c(NC(=O)CN(C)C(=O)CNC(=O)c2cccs2)c(C)c1 | -8.56 |  | 16.4 µM [falling, partial curve] |
| CC(/C=C1\SC(=S)N(NC(=O)c2cccc(O)c2)C1=O)=C\c1ccccc1 | 50.1 | 6.51 µM [rising, single point] | 32.6 µM [rising, single point] |

(more compounds)

| SMILES | cell number change [%] | AC50 [1] | AC50 [2] |
| --- | --- | --- | --- |
| CCCCn1nc(C(=O)N(C)CC(=O)Nc2cccc(F)c2)c2ccccc2c1=O | 50 | 29.1 µM [rising, single point] | 6.51 µM [falling, partial curve, poor fit] |
| O=C(c1ccco1)N1CCN(C(=S)Nc2ccccc2Cl)CC1 | 9.97 |  | 6.51 µM [falling, single point] |
| CC1(NC(=O)Cc2ccc(Cl)c(Cl)c2)CCS(=O)(=O)C1 (stereo not given) | 12.9 |  | 0.58 µM [falling, single point] |
| CSc1sc(C(=O)Nc2ccc(F)cc2F)c2c1C=CCC2 | 23.7 |  | 29.1 µM [rising, single point] |
| COc1ccc(Nc2ncnc3c2cnn3Cc2ccccc2)cc1 | -30.8 | 13 µM [falling, partial curve, poor fit] |  |
| O=C(CN1C(=O)NC(Cc2ccccc2)C1=O)Nc1ccc(OC(F)F)cc1 (stereo not given) |  | 4.11 µM [falling, single point] | 3.66 µM [falling, partial curve] |
| CCOC(=O)c1cnc(SCC(=O)Nc2ccc3c(c2)OCCO3)nc1N | -0.369 |  | 16.4 µM [rising, single point] |
| COc1ccc(CCNC(=O)CSc2nnnn2-c2ccccc2)cc1 | 3.37 |  |  |
| CCN1CCN(c2ccc(NC(=O)c3cnccn3)cc2)CC1 | -15 | 2.59 µM [rising, partial curve] | 2.06 µM [rising, partial curve] |
| COc1ccc(-c2cc(C(=O)NCCc3ccc(S(N)(=O)=O)cc3)c3ccccc3n2)cc1 | -62 |  |  |
| O=C(c1cccc(COCC(F)(F)C(F)F)c1)N1CCN(c2ccccc2)CC1 | -16.6 |  | 16.4 µM [rising, partial curve] |
| CCNC(=O)COC(=O)C1CCN(S(=O)(=O)c2ccc3c(c2)OCCO3)CC1 | -3.37 |  |  |
| Cc1oc(-c2cccc(Cl)c2)nc1CSc1nc2c(c(=O)[nH]1)CCC2 | 32.7 |  |  |
| CCOc1cccc(C(=O)NC(c2ccccc2)C(C)C)c1 (stereo not given) | 22.6 |  | 3.66 µM [rising, full curve, poor fit] |
| Cc1cnc(C(=O)NCC(=O)Nc2ccccc2Br)cn1 | 0.5 | 0.00411 µM [falling, full curve, poor fit] |  |
| O=C1CC2(CCCCC2)Oc2ccc(O)cc21 | -28.3 | 0.058 µM [falling, full curve, poor fit] | 0.0326 µM [falling, full curve] |
| Cc1ccccc1NC(=O)/C=C/c1ccc([N+](=O)[O-])s1 |  |  | 7.31 µM [falling, partial curve] |
| COC(=O)c1ccc(CNC(=O)COC(=O)C2CC3C=CC2C3)cc1 (stereo not given) | 78.2 | 29.1 µM [rising, single point] |  |
| CC1CCC2(CC1)NC(=O)N(CC(=O)N1CCN(C(=O)c3cccs3)CC1)C2=O (stereo not given) | -7.05 |  | 29.1 µM [rising, single point] |
| CCc1ccc(-c2nn(-c3ccccc3C)cc2C(=O)N2CCN(C3CCS(=O)(=O)C3)CC2)cc1 (stereo not given) | 2.72 |  | 29.1 µM [rising, single point] |

| SMILES | cell number change [%] | AC50 [1] | AC50 [2] |
| --- | --- | --- | --- |
| CCCCOc1ccc(C(=O)NCC(=O)NCC(c2ccc(OC)cc2)N2CCOCC2)cc1 (stereo not given) | -0.134 |  | 3.66 µM [rising, full curve, poor fit] |
| CC(=O)N1c2ccc(S(=O)(=O)NCCC(=O)Nc3ccc(OC(F)(F)F)cc3)cc2CC1C (stereo not given) | -21.9 |  | 29.1 µM [falling, single point] |
| COc1ccc(N(CC(=O)NCCSc2ccccn2)S(=O)(=O)c2ccccc2)cc1OC | -24.8 |  |  |
| CN1CCC(N2CCN(c3cccc(C(F)(F)F)c3)CC2)CC1 | -75.1 | 29.1 µM [falling, single point] |  |
| Cc1ccc(Sc2ccc(C(=O)N(C)C)cc2[N+](=O)[O-])cc1 | 56.6 | 0.0366 µM [rising, full curve] |  |
| Cn1c(-c2cccc(Br)c2)cnc1NCc1ccccc1O | 4.91 |  |  |
| Cc1c(N2C(=O)/C(=C3/C(=O)N(C)c4ccccc43)SC2=S)c(=O)n(-c2ccccc2)n1C | -23.6 |  | 14.6 µM [falling, partial curve, poor fit] |
| Cc1ccc(CCNC(=O)c2nnn(-c3cc(C)cc(C)c3)c2N)cc1 |  |  | 0.58 µM [rising, single point] |
| COc1cccc(/C=C(/C(=O)OCC(=O)NC2CCCCCCC2)c2ccccc2)c1 | 5.13 |  | 1.84 µM [rising, full curve] |
| CCCC(=O)OC/C(O)=C(\C#N)c1nc2ccccc2[nH]1 | 19.3 |  | 0.794 µM [rising, full curve, poor fit] |
| Cc1ccccc1NC(=O)C1(NC(=O)c2cccc(N3C(=O)CSC3c3ccccc3)c2)CCCCC1 (stereo not given) | -17.1 |  |  |
| O=c1[nH]cc(S(=O)(=O)N2CCCc3ccccc32)c(=O)[nH]1 | -108 | 20.6 µM [falling, partial curve] |  |
| O=C(NCCCN=C1NS(=O)(=O)c2ccccc21)c1ccncc1 | -34.2 | 29.1 µM [falling, partial curve, poor fit] | 1.16 µM [falling, full curve] |
| CC(C)c1ccc(S(=O)(=O)N2CCN(CC(=O)Nc3ccc(Cl)cc3F)CC2)cc1 | -6.1 |  | 6.51 µM [falling, single point] |
| FC(F)(F)c1cccc(/C=N/NC(=S)NC2CCCCC2)c1 | -26 | 6.51 µM [rising, single point] |  |
| Fc1ccccc1OCCSc1nnnn1-c1ccccc1 | 315 | 20.6 µM [rising, partial curve] | 14.6 µM [rising, partial curve] |
| CCN(CC)S(=O)(=O)c1cccc(C(=O)OCC(=O)NCc2ccccc2OC)c1 | 3.1 |  |  |
| Cc1cccc(N2CCN(C(=O)Cn3c(=O)[nH]c4ccsc4c3=O)CC2C)c1 (stereo not given) | 42.7 | 29.1 µM [rising, single point] | 0.116 µM [falling, full curve, poor fit] |
| CCCCNC(=S)NNC(=O)c1cc(-c2cccnc2)nc2ccccc12 | 32.1 |  |  |
| CCOC(=O)c1cccc(NC(=O)CCOc2ccccc2)c1 | -6.44 |  | 23.1 µM [falling, single point] |
